# Measured values: ChEMBL document CHEMBL4513139, “CO-ADD screening of University of Strathclyde (UK) compounds”
# The list shows a part of the results. Measured potencies and affinities stand elsewhere.
# Tested on: Acinetobacter baumannii
# Conditions: Concentration 32 ug.mL-1; ASSAY_TEST Inhibition of Bacterial Growth; detection method Absorption (OD600); MEDIA CAMHB; plate type 384well; NBS; CORNING #3640; time 18 hr
row,Structure (SMILES),Inhibition
1,CCOP(=O)(OCC)C(Cc1cn(Cc2cnc(C)nc2N)nn1)C(=O)O.O=C(O)C(F)(F)F (stereo unspecified),10.59%
